Results as given in US20100196275A1, “Methods and products for neutralizing the harmful effects of combustion products” (priority 2006, published 2010).

Tested on: p53 exon 5 and exon 7 DNA fragments
Test: UvrABC incision of Acr-modified p53 DNA fragments with and without CpG methylation
Set-up: species or system human
Conditions: p53 exon 5 and 7 fragments, SssI methylated

In the case of C=CC=O [Acr, Acrolein], the “enhancement of UvrABC incision band intensity of Acr-DNA adducts at CpG-containing codons, methylated versus unmethylated” value is reported as 2- to 4 fold.

No dose or concentration is given here for some results.
